Test results as given in PubChem BioAssay AID493014 (National Center for Advancing Translational Sciences (NCATS), 2011).
The list shows a part of the results. Shown are side measurements of this screen, not its main read-out; they come without a call. The list favours compounds with an active or inconclusive main result. Words in brackets tell the shape of the fitted curve; partial curves, single points and poor fits give uncertain potencies.

Test: qHTS Assay to Find Inhibitors of Chronic Active B-Cell Receptor Signaling
Details: ABC-DLBCL IkBa-CBG/CBR reporter, luminescence ratio (green luciferase fused to IkBa over red control in TMD8 lymphoma cells), 4 h
Procedure, shortened: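 TMD8 human ABC-DLBCL cells with doxycycline-inducible IκBα–green luciferase fusion and unfused red luciferase, in 0.5% FBS medium; compounds up to 46 uM, 4 h at 37C. Green/red luminescence ratio, filter-overlap corrected, fitted to concentration-response curves.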

[1] = measured here: CBR red luminescence, cell number

With `COc1cccc(C(=O)Nc2nc(SCc3ccc(Cl)cc3)n[nH]2)c1` the AC50 (measured here: IkBa-CBG green luminescence) was 35.5 µM [falling, single point].

For `CC1=C(C(=O)Nc2cccnc2)C(c2ccc3c(c2)OCO3)C2=C(CCCC2=O)N1` (configuration not stated), the AC50 [1] was 9.2 µM [rising, partial curve, poor fit].

For `COc1cccc(NC(=S)NNC(=O)Cn2nc([N+](=O)[O-])cc2C)c1`, the AC50 [1] was 10 µM [rising, partial curve].

With `COc1ccc2c(CC(=O)NNC(=O)c3ccc(O)cc3)coc2c1` the AC50 [1] was 1.84 µM [falling, single point].

In the case of `COCC1CCCN(Cc2nc(Cc3ccccc3)no2)C1` (configuration not stated), the AC50 [1] is reported as 35.5 µM [rising, single point].

With `CCOC(=O)C1=C(c2ccccc2)N(C)C(=O)NC1c1ccc(O)c(OC)c1` (configuration not stated) the AC50 [1] was 7.94 µM [rising, partial curve, poor fit].

With `COc1ccc(-[n+]2c(C)cc(/C=C3\Sc4ccccc4N3C)cc2C)cc1` the AC50 [1] was 12.6 µM [falling, partial curve, poor fit].

For `CC1CC(C)(C)NC(=S)N1CCCC(=O)Nc1ccc2c(c1)OCCO2` (configuration not stated), the AC50 [1] was 20 µM [falling, partial curve].

For `O=[N+]([O-])c1ccc(C(O)CNC(=S)Nc2ccccc2)cc1` (configuration not stated), the AC50 [1] was 14.1 µM [rising, single point].

For `COCCCn1c(=S)[nH]c2c(sc3ccccc32)c1=O`, the AC50 [1] was 2.24 µM [falling, full curve].

In the case of `CC(=O)O[C@]1(C(C)=O)CC[C@H]2[C@@H]3C=C(C)C4=CC(=O)CC[C@]4(C)[C@H]3CC[C@@]21C`, the AC50 [1] is reported as 1.26 µM [rising, full curve].

For `CC(C)C(=O)N1CCC(c2nc(-c3ccc(S(=O)(=O)N4CCN(C)CC4)cc3)no2)CC1`, the AC50 [1] was 2 µM [rising, full curve, poor fit].

In the case of `O=C(CNC(=S)NC(=O)c1ccco1)c1ccccc1`, the AC50 [1] is reported as 8.91 µM [falling, partial curve, poor fit].

For `CCOC(=O)C1=C(CN2CCOCC2)NC(=O)NC1c1cc(C)ccc1C` (configuration not stated), the AC50 [1] was 23.1 µM [falling, single point].

For `COc1ccc(OC)c(NC(=O)Nc2ccccc2C)c1`, the AC50 [1] was 9.2 µM [falling, single point].

For `COC(=O)/C=C/c1cnc2ccccc2c1`, the AC50 [1] was 7.08 µM [falling, partial curve, poor fit].

For `Cc1ccc(NC(=O)/C(Cl)=C/c2ccccc2)cc1C`, the AC50 [1] was 9.2 µM [falling, partial curve].

In the case of `Cc1cc(Cl)c2c(c1)[C@]1(C(=O)N2)[C@@H]2C(=O)N(Cc3ccccc3)C(=O)[C@@H]2[C@@H]2CCCN21`, the AC50 [1] is reported as 35.5 µM [falling, single point].

For `O=C(c1cnccn1)N(Cc1ccco1)C1(C(=O)NC2CCCCC2)CCCCC1`, the AC50 [1] was 29.1 µM [falling, single point].

For `Cn1nnnc1SCC(=O)NCc1cc([N+](=O)[O-])ccc1O`, the AC50 [1] was 6.31 µM [rising, full curve, poor fit].

With `COc1ccccc1NC(=O)c1ccc(COc2ccc3c(c2)CCC3)cc1` the AC50 [1] was 6.51 µM [falling, partial curve].

For `Cc1ccc(/C(N)=N/OC(=O)COc2ccccc2Cl)cc1`, the AC50 [1] was 0.731 µM [rising, full curve].

For `O=C(O)c1ccc(N2N=C(c3ccccc3)CC2c2ccccc2)cc1` (configuration not stated), the AC50 [1] was 3.55 µM [falling, full curve].

With `CN(Cc1ccco1)C(=O)CSc1nn2c(=O)c(C(C)(C)C)nnc2s1` the AC50 [1] was 8.2 µM [falling, single point].

For `CCCCCn1c(-c2ccco2)nc2nc3ccccc3nc21`, the AC50 [1] was 29.1 µM [falling, single point].

In the case of `COc1ccccc1-n1c(SC)nc(O)cc1=O`, the AC50 [1] is reported as 0.116 µM [falling, full curve, poor fit].

For `C[C@H]1CN([C@@H](C)CO)C(=O)c2cccc(NC(=O)c3ccc(-c4nccs4)cc3)c2O[C@@H]1CN(C)C(=O)NC1CCCCC1`, the AC50 [1] was 29.1 µM [rising, single point].

For `NC(=S)c1cc2ccc(O)cc2oc1=O`, the AC50 [1] was 1.41 µM [falling, full curve, poor fit].

In the case of `C/C(N)=C(/C#N)C(=O)CSc1nc2ccccc2n1CC(C)C`, the AC50 [1] is reported as 12.6 µM [rising, partial curve, poor fit].

With `CCCCC(=O)Nc1cnc(NC(=O)c2cccs2)cc1C` the AC50 [1] was 22.4 µM [falling, single point].

For `Cc1ccc(C)c(C(=O)CSc2nnnn2C(C)C)c1`, the AC50 [1] was 0.116 µM [rising, full curve, poor fit].

In the case of `Clc1cc(Cl)cc(CN2CCSCC2)c1`, the AC50 [1] is reported as 5.62 µM [falling, single point].
